PubChem BioAssay AID624331 (National Center for Advancing Translational Sciences (NCATS), 2012)
Inconclusive results, whose numbers are uncertain, are shown with a selection of clear calls. Potencies beside an inconclusive call are fits to weak or partial responses and may not hold up. Active and inactive are the calls of the source. Calls come from the whole dose curve; as a rule, active = well fitted activation curve with a large enough effect; inconclusive = small, poorly fitted or top-dose-only effect; inactive = no such curve, though single readings can be large or run the other way.

assay: qHTS assay for re-activators of p53 using a Luc reporter: Hit Validation with no p53 Expressed; settings: p53-null cells, luciferase reporter counter-screen; series mostly up to 46.1 µM
How it was run: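 Without p53 expression, cells (1000/well, Opti-MEM + 10% FBS) were exposed 24 h at 37 deg C to compounds in a 1:5 series from 10 mM stock (top 46.1 µM in well). Luminescent signal read 10 min after Amplite addition; actives flag unspecific activation.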
Potency is the fitted concentration of half-maximal effect.

SMILES	Potency
Cc1cccc(NC(=O)c2cnc3ccccn3c2=O)c1	inactive
CC1CCc2c(sc(NC(=O)C3=COCCO3)c2C(N)=O)C1 (stereo unspecified)	inactive
COc1ccc2nc(Nc3nc(CSc4nc5ccccc5[nH]4)cc(=O)[nH]3)nc(C)c2c1	inconclusive: 29.1 µM [activator, single point]
Cc1ccc2oc(-c3ccc(C)c(NC(=S)NC(=O)c4cccs4)c3)nc2c1	inactive
CC(=O)Oc1ccc(Cl)cc1/C=C/c1ccc2ccccc2n1	active: 23.1 µM
NC(N)=Nc1nc(C2COc3ccccc3O2)cs1 (stereo unspecified)	inconclusive: 1.03 µM [activator, full curve, poor fit]
Cc1cc(-c2ccccc2)n2ncc(-c3ccccc3)c2n1	active: 1.84 µM
O=C(Nc1ccc(Cl)cn1)C1CCN(c2ncnc3c2nc2n3CCCCC2)CC1	inconclusive: 3.66 µM [activator, single point]
Clc1ccc(OCc2cc(-c3ccccc3)no2)c(Cl)c1	inconclusive: 3.66 µM [activator, full curve, poor fit]
CCN1C(=S)SC(=O)C1=C1C=C(C)N(CCO)C(C)=C1	inconclusive: 3.26 µM [activator, partial curve, poor fit]
c1ccc(COc2ccc(OCCOCCn3cncn3)cc2)cc1	active: 1.3 µM
CC(C)(C)NC(=O)C(c1ccc(Cl)cc1)N(CCO)C(=O)c1snc(C(N)=O)c1N (stereo unspecified)	inactive
Cc1ccc2nc(C(F)(F)F)c(C#N)c(N)c2c1	inactive
Cc1cc(C(F)(F)F)c(C#N)c(SCC(=O)Nc2nc3ccccc3s2)n1	active: 0.116 µM
O=C1CC(c2ccc3c(c2)OCCO3)Oc2ccc([N+](=O)[O-])cc21 (stereo unspecified)	inconclusive: 0.058 µM [activator, full curve, poor fit]
COc1cccc(NC(=O)CCN2CCOCC2)c1	inconclusive: 4.61 µM [activator, single point]
S=c1[nH]nc(-c2ccco2)n1Cc1ccccc1	inactive
Cc1ccc(-c2cc(-c3ccccc3)no2)c(O)c1	inconclusive: 1.03 µM [activator, full curve, poor fit]

SMILES	Potency
CCCCc1ccc(NC(=S)N2CCCC(CO)C2)cc1 (stereo unspecified)	inconclusive: 0.164 µM [activator, full curve, poor fit]
Fc1cccc(/C=N/NC(=S)Nc2ccccc2Cl)c1	inconclusive: 29.1 µM [activator, single point]
CN1CCN(C(=O)CCCN2C(=O)/C(=C/c3ccc(Cl)cc3)SC2=S)CC1	inconclusive: 2.06 µM [activator, partial curve, poor fit]
Cc1ccc(-c2nc(-c3cccnc3)no2)c(C)c1	inactive
CCc1ccc2oc(-c3ccc(N)cc3)nc2c1	inconclusive: 7.31 µM [activator, partial curve, poor fit]
O=C(c1ccccc1)n1c(=S)nc2ccccn21	inconclusive: 7.31 µM [activator, partial curve, poor fit]
CCCN1CCC(=NNC(=O)CSc2cc(C)c(Br)cc2C)CC1	inactive
c1ccc(-c2csc(Nc3ncccn3)n2)cc1	inconclusive: 11.6 µM [activator, partial curve, poor fit]
O=C(Oc1ccc2ccccc2c1Cl)N1CCCCCC1	inconclusive: 0.164 µM [activator, full curve, poor fit]
CCOC(=O)c1[nH]nc(C(=O)c2ccc(Br)cc2)c1O	inactive
CC(=O)c1ccc(N2Cc3ccccc3C2=NC(=O)c2cccs2)cc1	active: 10.3 µM
O=C(/C=C/c1ccccc1)NC1CCSC1=O (stereo unspecified)	active: 16.4 µM
CCOC(=O)c1csc(Nc2nc3ccc(F)cc3s2)n1	inactive
COc1cccc(N(C(=O)c2nc3nccc(C)n3n2)c2nc3ccccc3s2)c1	inconclusive: 2.06 µM [activator, partial curve, poor fit]
COCCSc1nnc(NC(=O)C2CCCCC2)s1	inconclusive: 0.58 µM [activator, full curve, poor fit]
Cc1c(C(=O)Nc2nc3ccccc3[nH]2)oc2ccccc12	inconclusive: 5.8 µM [activator, partial curve, poor fit]
COc1ccccc1NC(CC(=O)c1ccccc1)C(=O)OCC(=O)c1ccc(F)cc1 (stereo unspecified)	inconclusive: 0.164 µM [activator, full curve, poor fit]
CN(C)c1ccc(N=Cc2nc(-c3ccccc3)oc2OC(=O)c2cccc(Cl)c2)cc1	inactive

2 entries picked at random from those above, as already listed:
SMILES	Potency
COc1ccccc1NC(CC(=O)c1ccccc1)C(=O)OCC(=O)c1ccc(F)cc1 (stereo unspecified)	inconclusive: 0.164 µM [activator, full curve, poor fit]
O=C(/C=C/c1ccccc1)NC1CCSC1=O (stereo unspecified)	active: 16.4 µM
